# Measured values reported in PubChem BioAssay (NCATS).
# Several values for one entry are separate records, joined by “and”; a condition that tells them apart may be missing. Equal values may be shown once. The shares of active, inactive and inconclusive entries below differ from those in the screen. Potencies beside an inconclusive call are fits to weak or partial responses and may not hold up. More than one record can exist for a structure, and the calls need not agree. Activity calls are given as the source filed them. Unless noted, the call rests on the fitted dose curve; in most records, active means well fitted curve in the direction sought with a large enough effect; inconclusive means small, poorly fitted or top-dose-only effect, or another doubt; inactive means no such curve, though single readings can be large; an effect the other way counts as inactive or inconclusive.
# Experiments:
# [1] = Quantitative High-Throughput drug screen in 47 multiple myeloma cell lines against the NCATS MIPE library collection: UTMC2_PLB cell viability assay (AID 1919868); settings: CellTiter-Glo ATP luminescence, 48 h; viability (% of DMSO control): at 45.8 µM (top of the series); further: nearly all actives have a fitted effect of over 55% in size
# Outline: (§1)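 ATP-based CellTiter-Glo luminescence after 48 h drug exposure (37 °C, 5% CO2) of 500 myeloma cells per well. DMSO-only wells set 100% viability, media-only wells 0%; MIPE 4.0 library added by pin tool.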
# [2] = Quantitative High-Throughput drug screen in 47 multiple myeloma cell lines against the NCATS MIPE library collection: KMS11_JCRBsus cell viability assay (AID 1919873); further: nearly all actives have a fitted effect of over 50% in size
# Outline: as §1
# [3] = Quantitative High-Throughput drug screen in 47 multiple myeloma cell lines against the NCATS MIPE library collection: KMS28BM_JCRB cell viability assay (AID 1919874); further: nearly all actives have a fitted effect of over 35% in size
# Outline: as §1
# [4] = tested on: CRL-7250; assay: Cytotoxic Profiling of Annotated Libraries Using Quantitative High-Throughput Screening (AID 1296008); settings: Five cell lines viability, CellTiter-Glo ATP luminescence, 48-72 h; max response: stronger effect = lower value; further: nearly all actives have a fitted effect of over 60% in size; on max response: on the % scale 0 is the no-effect control and ±100 the full control effect
# Outline: (§2)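 Cytotoxicity was measured as CellTiter-Glo ATP luminescence, read after 10 min at room temperature. Compound treatment of the cells lasted 48 or 72 hr at 37 degrees Celsius in a qHTS format.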
# [5] = tested on: HEK293; assay: as above; settings: Five cell lines viability, CellTiter-Glo ATP luminescence, 48-72 h; max response: stronger effect = lower value
# Outline: as §2
# [6] = tested on: HaCat; assay: as above; settings: Five cell lines viability, CellTiter-Glo ATP luminescence, 48-72 h; max response: stronger effect = lower value
# Outline: as §2
# [7] = tested on: NIH3T3; assay: as above; settings: Five cell lines viability, CellTiter-Glo ATP luminescence, 48-72 h; max response: stronger effect = lower value
# Outline: as §2
# [8] = Quantitative High-Throughput drug screen in 47 multiple myeloma cell lines against the NCATS MIPE library collection: PE2_PLB cell viability assay (AID 1919869); further: nearly all actives have a fitted effect of over 35% in size
# Outline: as §1
# [9] = Quantitative High-Throughput drug screen in 47 multiple myeloma cell lines against the NCATS MIPE library collection: RPMI8226_ATCC cell viability assay (AID 1919871); further: nearly all actives have a fitted effect of over 30% in size
# Outline: as §1
# [10] = qHTS for identification of novel therapeutic agents for treatment of microphthalmiaassociated transcription factor (MiT) renal cell carcinoma (RCC) (AID 1963991; calls by dose curve); settings: TFE3-RCC UOK109 viability, CellTiter-Glo, 48 h; active = Z-AUC below -0.8 in all three lines
# Outline: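 Curves over 11 concentrations were fitted to CellTiter-Glo luminescence, scaled between empty wells (0%) and DMSO (100%) viability. Cells were UOK109, UOK124 and UOK145 TFE3-fusion RCC lines at 500/well, exposed 48 hours at 37 C.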
# [11] = tested on: MCC-13; assay: qHTS assay to identify novel small-molecules to repurpose for Merkel cell carcinoma treatment (AID 1296009); settings: MCC and control cell lines, CellTiter-Glo viability, 72 h; series mostly up to 46 µM; further: nearly all actives have a fitted effect of over 60% in size
# Outline: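 Cell viability, measured as CellTiter-Glo luminescence, was normalized between DMSO and no-cell wells. The cells had been exposed to 8- or 11-point compound dilutions for 72 hr at 37 degree celsius.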
# [12] = Quantitative High-Throughput drug screen in 47 multiple myeloma cell lines against the NCATS MIPE library collection: PCM6_Riken cell viability assay (AID 1919870); settings: CellTiter-Glo ATP, 48 h; viability (% of control): at 45.8 µM (top of the series); further: nearly all actives have a fitted effect of over 30% in size
# Outline: as §1
# [13] = tested on: KB-3-1; assay: Cytotoxic Profiling of Annotated Libraries Using Quantitative High-Throughput Screening (AID 1296008); settings: Five cell lines viability, CellTiter-Glo ATP luminescence, 48-72 h; max response: stronger effect = lower value; further: nearly all actives have a fitted effect of over 60% in size; on max response: on the % scale 0 is the no-effect control and ±100 the full control effect
# Outline: as §2
# [14] = Quantitative High-Throughput drug screen in 47 multiple myeloma cell lines against the NCATS MIPE library collection: OPM2_DSMZ cell viability assay (AID 1919872); further: nearly all actives have a fitted effect of over 30% in size
# Outline: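 Approved and investigational drugs from MIPE 4.0 were added by pin tool to 500 cells per well. After 48 hours at 37C, ATP-based CellTiter-Glo luminescence indicated remaining viability.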
# Potency means the concentration at half of the fitted maximal effect.
compound,measurement,setting,value
O=c1oc2c(O)c(O)cc3c(=O)oc4c(O)c(O)cc1c4c23,Potency,[1],"inconclusive: 0.132 µM [cytotoxic, full curve, poor fit]"
same,Potency,[2],inactive
same,Potency,[3],"inconclusive: 11.8 µM [cytotoxic, single point]"
same,Potency,[4],"inconclusive: 13 µM [inhibitor, single point]"
same,outcome,[5],inactive
same,max response,[6],inactive: 0.0618% and inactive: -16.9%
same,Potency,[7],"inconclusive: 14.6 µM [inhibitor, single point]"
c1ccc2c(-c3cnn4cc(-c5ccc(N6CCNCC6)cc5)cnc34)ccnc2c1,Potency,[1],"inconclusive: 3.32 µM [cytotoxic, full curve, poor fit]"
same,Potency,[8],"inconclusive: 2.96 µM [cytotoxic, full curve, poor fit]"
same,Potency,[9],"inconclusive: 20.9 µM [cytotoxic, partial curve, poor fit]"
same,Potency,[2],"inconclusive: 13.2 µM [cytotoxic, partial curve, poor fit]"
same,Potency,[3],"inconclusive: 26.4 µM [cytotoxic, partial curve, poor fit]"
same,Potency,[10],active: 18.7 µM
same,Potency,[4],"inconclusive: 4.69 µM [inhibitor, full curve, poor fit]"
same,Potency,[5],"inconclusive: 1.32 µM [inhibitor, full curve, poor fit]"
same,Potency,[6],"inconclusive: 9.35 µM [inhibitor, full curve, poor fit]"
same,Potency,[11],active: 10.5 µM
C[C@@H](NCCCc1cccc(C(F)(F)F)c1)c1cccc2ccccc12,Potency,[1],"inconclusive: 18.7 µM [rising, single point]"
same,Potency,[12],inactive
same,Potency,[9],"inconclusive: 2.09 µM [cytotoxic, partial curve, poor fit]"
same,Potency,[4],"inconclusive: 29.9 µM [inhibitor, single point]"
same,Potency,[5],active: 15 µM
same,Potency,[6],"inconclusive: 33.5 µM [inhibitor, partial curve, poor fit]"
same,Potency,[13],"inconclusive: 29.1 µM [inhibitor, single point]"
same,Potency,[11],"inconclusive: 21.1 µM [inhibitor, single point]"
CCOC(=O)C1=C(N)Oc2ccc(Br)cc2C1C(C#N)C(=O)OCC (stereo not given),max response,[4],inactive: 2.39% and inactive: -0.818% and inactive: 2%
CN1CCN(c2cccc(Nc3nc4c(-c5ccc(S(C)(=O)=O)cc5)cccn4n3)c2)CC1,Potency,[1],"inconclusive: 4.18 µM [cytotoxic, partial curve, poor fit]"
same,Potency,[14],"inconclusive: 23.5 µM [cytotoxic, partial curve]"
same,Potency,[2],"inconclusive: 1.32 µM [cytotoxic, full curve]"
same,Potency,[10],"inconclusive: 9.35 µM [falling, partial curve]"
same,Potency,[4],"inconclusive: 7.43 µM [inhibitor, full curve] and inconclusive: 4.61 µM [inhibitor, full curve]"
same,Potency,[5],"inconclusive: 2.96 µM [inhibitor, full curve] and active: 9.2 µM"
same,Potency,[6],active: 14.8 µM and active: 5.17 µM
same,Potency,[13],"inconclusive: 20.6 µM [inhibitor, single point]"
CN(C)C(=O)C(CCN1CCC(O)(c2ccc(Cl)cc2)CC1)(c1ccccc1)c1ccccc1,Potency,[1],active: 18.7 µM
same,Potency,[8],active: 26.4 µM
same,Potency,[14],active: 18.7 µM
same,Potency,[4],"inconclusive: 37.2 µM [inhibitor, single point]"
same,Potency,[5],active: 13.2 µM and active: 10.6 µM
same,Potency,[6],"inconclusive: 29.9 µM [inhibitor, single point]"
same,Potency,[7],"inconclusive: 33.2 µM [inhibitor, single point] and inconclusive: 18.8 µM [inhibitor, single point]"
same,Potency,[11],"inconclusive: 33.5 µM [inhibitor, single point]"
CCOc1ccc(Nc2nc(-c3c(C)nc4ccccn34)cs2)cc1,Potency,[1],"inconclusive: 0.0372 µM [cytotoxic, full curve]"
same,Potency,[8],"inconclusive: 0.132 µM [cytotoxic, full curve]"
same,Potency,[12],"inconclusive: 0.526 µM [cytotoxic, partial curve]"
same,Potency,[9],"inconclusive: 0.0093 µM [cytotoxic, full curve, poor fit]"
same,Potency,[10],active: 0.00235 µM
same,Potency,[4],"inconclusive: 0.0021 µM [inhibitor, full curve, poor fit]"
same,Potency,[5],"inconclusive: 0.0033 µM [inhibitor, full curve, poor fit]"
same,Potency,[13],active: 33.2 nM and active: 32.6 nM
same,Potency,[7],active: 5.3 nM and active: 73.1 nM
COc1ccccc1N1CCN(CC(O)COc2cccc3ccccc23)CC1 (stereo not given),Potency,[1],"inconclusive: 7.43 µM [cytotoxic, partial curve, poor fit]"
same,Potency,[8],inactive
same,Potency,[12],"inconclusive: 5.9 µM [cytotoxic, full curve, poor fit]"
same,Potency,[9],active: 26.4 µM
same,Potency,[14],"inconclusive: 1.32 µM [cytotoxic, partial curve, poor fit]"
same,Potency,[4],"inconclusive: 29.9 µM [inhibitor, single point]"
same,Potency,[5],"inconclusive: 37.2 µM [inhibitor, single point] and inconclusive: 26.6 µM [inhibitor, partial curve, poor fit]"
same,Potency,[6],"inconclusive: 33.5 µM [inhibitor, single point]"
CC1(C)O[C@H]2C[C@@H]3[C@H]4CCC5=CC(=O)C=C[C@]5(C)[C@@]4(F)[C@@H](O)C[C@]3(C)[C@]2(C(=O)CO)O1,Potency,[1],inactive
same,Potency,[3],inactive
same,Potency,[10],"inconclusive: 18.7 µM [falling, partial curve]"
same,max response,[4],inactive: -11.3%
same,Potency,[5],"inconclusive: 2.35 µM [inhibitor, full curve, poor fit]"
same,max response,[13],inactive: 1.25%
same,Potency,[7],"inconclusive: 2.96 µM [inhibitor, full curve]"
CC(C)(C)c1[nH]cnc1C=c1[nH]c(=O)c(=Cc2ccccc2)[nH]c1=O,Potency,[1],"inconclusive: 0.0108 µM [cytotoxic, partial curve, poor fit]"
same,Potency,[12],"inconclusive: 0.0215 µM [cytotoxic, full curve]"
same,Potency,[9],"inconclusive: 0.0481 µM [cytotoxic, full curve]"
same,Potency,[3],"inconclusive: 76.2 µM [cytotoxic, single point]"
same,Potency,[4],active: 0.0038 µM
same,Potency,[5],inconclusive: 0.0008 µM [inhibitor]
same,Potency,[6],"inconclusive: 6.05 µM [inhibitor, partial curve, poor fit]"
Cc1cccc2c1CC[C@H](CN1CCC(c3c(Cl)cccc3Cl)CC1)C[C@@H]2O,Potency,[1],"inconclusive: 1.87 µM [cytotoxic, partial curve, poor fit]"
same,Potency,[14],"inconclusive: 11.8 µM [cytotoxic, partial curve]"
same,Potency,[2],active: 14.8 µM
same,Potency,[3],active: 14.8 µM
same,max response,[4],inactive: -6.89% and inactive: 0.148%
same,Potency,[5],"inconclusive: 37.2 µM [inhibitor, single point] and active: 14.6 µM"
same,Potency,[13],"inconclusive: 23.1 µM [inhibitor, single point]"
same,Potency,[7],"inconclusive: 29.1 µM [inhibitor, single point]"
same,Potency,[11],"inconclusive: 13.2 µM [inhibitor, partial curve]"
Cc1nnc(C(C)C)n1C1C[C@H]2CC[C@@H](C1)N2CC[C@H](NC(=O)C1CCC(F)(F)CC1)c1ccccc1 (stereo not given in full),Potency,[1],inactive
same,Potency,[12],"inconclusive: 33.2 µM [cytotoxic, single point]"
same,Potency,[14],inactive
same,Potency,[2],inactive
same,Potency,[10],inconclusive: 41.8 µM
same,Potency,[4],"inconclusive: 33.2 µM [inhibitor, single point]"
same,Potency,[5],"inconclusive: 37.2 µM [inhibitor, single point]"
same,max response,[6],inactive: 3.6%
O=C(Nc1cccc(Br)c1)c1cccc(S(=O)(=O)N2CCCCCC2)c1,Potency,[1],"inconclusive: 8.33 µM [cytotoxic, single point]"
same,Potency,[8],"inconclusive: 18.7 µM [cytotoxic, partial curve]"
same,Potency,[9],"inconclusive: 18.7 µM [cytotoxic, partial curve, poor fit]"
same,Potency,[3],"inconclusive: 37.2 µM [cytotoxic, single point]"
same,Potency,[10],inconclusive: 37.2 µM
same,Potency,[4],"inconclusive: 37.2 µM [inhibitor, single point]"
same,Potency,[5],active: 13.2 µM and active: 9.2 µM
same,Potency,[13],"inconclusive: 16.6 µM [inhibitor, partial curve] and inconclusive: 18.4 µM [inhibitor, single point]"
same,Potency,[7],"inconclusive: 29.1 µM [inhibitor, single point]"
same,Potency,[11],inactive
C[C@@H]1CCO[C@H]2Cn3cc(C(=O)NCc4ccc(F)cc4F)c(=O)c(O)c3C(=O)N12,Potency,[1],"inconclusive: 0.0012 µM [cytotoxic, full curve, poor fit]"
same,Potency,[8],"inconclusive: 26.4 µM [cytotoxic, single point]"
same,Potency,[9],"inconclusive: 26.4 µM [cytotoxic, partial curve]"
same,Potency,[4],"inconclusive: 29.1 µM [inhibitor, single point]"
same,Potency,[5],"inconclusive: 11.8 µM [inhibitor, full curve] and inconclusive: 25.9 µM [inhibitor, single point]"
same,Potency,[6],"inconclusive: 16.4 µM [inhibitor, partial curve]"
same,Potency,[7],active: 20.6 µM
Cn1cc(-c2ccc3nnc(C(F)(F)c4ccc5ncccc5c4)n3n2)cn1,Potency,[1],inactive
same,Potency,[9],"inconclusive: 5.26 µM [cytotoxic, partial curve, poor fit]"
same,Potency,[3],inactive
same,Potency,[10],"inconclusive: 7.43 µM [falling, partial curve, poor fit]"
same,Potency,[4],"inconclusive: 26.4 µM [inhibitor, single point]"
same,Potency,[5],"inconclusive: 37.2 µM [inhibitor, partial curve, poor fit]"
same,Potency,[6],"inconclusive: 20.9 µM [inhibitor, single point]"
same,Potency,[7],"inconclusive: 16.4 µM [inhibitor, partial curve, poor fit]"

# No new results follow: an excerpt of the list.
compound,measurement,setting,value
O=c1oc2c(O)c(O)cc3c(=O)oc4c(O)c(O)cc1c4c23,max response,[6],inactive: 0.0618% and inactive: -16.9%
same,Potency,[7],"inconclusive: 14.6 µM [inhibitor, single point]"

# A different layout for some results above:
compound | measurement | setting | value
O=c1oc2c(O)c(O)cc3c(=O)oc4c(O)c(O)cc1c4c23 | Potency | [1] | inconclusive: 0.132 µM [cytotoxic, full curve, poor fit]
c1ccc2c(-c3cnn4cc(-c5ccc(N6CCNCC6)cc5)cnc34)ccnc2c1 | Potency | [11] | active: 10.5 µM
CCOc1ccc(Nc2nc(-c3c(C)nc4ccccn34)cs2)cc1 | Potency | [8] | inconclusive: 0.132 µM [cytotoxic, full curve]
Cn1cc(-c2ccc3nnc(C(F)(F)c4ccc5ncccc5c4)n3n2)cn1 | Potency | [7] | inconclusive: 16.4 µM [inhibitor, partial curve, poor fit]
